Test results from the supplement of paper PMC12067093, “Discovery and optimisation of a covalent ligand for TRIM25 and its application to targeted protein ubiquitination” (Chemical Science, 2025).
The other results are listed elsewhere or left out.

Protein sequences, listed by entry. Tags and fused reporters are not part of them. Lines headed by an entry give the natural chain unless they say otherwise; changes in a name come on top.
UniProt Q6P1N9: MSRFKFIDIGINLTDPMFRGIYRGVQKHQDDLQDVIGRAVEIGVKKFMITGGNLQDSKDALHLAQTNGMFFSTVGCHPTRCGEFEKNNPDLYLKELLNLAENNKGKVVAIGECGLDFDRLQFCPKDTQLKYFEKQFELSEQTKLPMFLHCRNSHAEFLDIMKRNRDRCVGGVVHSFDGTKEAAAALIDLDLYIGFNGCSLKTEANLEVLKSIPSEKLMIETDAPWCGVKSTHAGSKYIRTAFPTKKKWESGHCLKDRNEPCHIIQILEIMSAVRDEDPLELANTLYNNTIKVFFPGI
UniProt Q86TM6, whole entry, looked up: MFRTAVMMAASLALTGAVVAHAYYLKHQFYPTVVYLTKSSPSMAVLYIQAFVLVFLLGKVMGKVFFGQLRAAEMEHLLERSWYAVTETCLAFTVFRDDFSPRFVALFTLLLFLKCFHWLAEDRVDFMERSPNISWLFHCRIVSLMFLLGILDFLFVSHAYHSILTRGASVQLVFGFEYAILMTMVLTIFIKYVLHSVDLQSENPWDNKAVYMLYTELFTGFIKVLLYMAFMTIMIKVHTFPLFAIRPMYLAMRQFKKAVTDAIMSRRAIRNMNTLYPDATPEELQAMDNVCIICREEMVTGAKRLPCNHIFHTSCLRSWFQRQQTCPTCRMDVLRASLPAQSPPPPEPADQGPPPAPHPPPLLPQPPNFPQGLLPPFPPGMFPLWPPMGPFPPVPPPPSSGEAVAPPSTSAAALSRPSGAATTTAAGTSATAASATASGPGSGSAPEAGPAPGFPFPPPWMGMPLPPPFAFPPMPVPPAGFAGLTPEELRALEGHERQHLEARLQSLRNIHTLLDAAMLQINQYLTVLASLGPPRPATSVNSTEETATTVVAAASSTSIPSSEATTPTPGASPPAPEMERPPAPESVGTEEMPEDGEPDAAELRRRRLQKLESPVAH
UniProt Q86TI0: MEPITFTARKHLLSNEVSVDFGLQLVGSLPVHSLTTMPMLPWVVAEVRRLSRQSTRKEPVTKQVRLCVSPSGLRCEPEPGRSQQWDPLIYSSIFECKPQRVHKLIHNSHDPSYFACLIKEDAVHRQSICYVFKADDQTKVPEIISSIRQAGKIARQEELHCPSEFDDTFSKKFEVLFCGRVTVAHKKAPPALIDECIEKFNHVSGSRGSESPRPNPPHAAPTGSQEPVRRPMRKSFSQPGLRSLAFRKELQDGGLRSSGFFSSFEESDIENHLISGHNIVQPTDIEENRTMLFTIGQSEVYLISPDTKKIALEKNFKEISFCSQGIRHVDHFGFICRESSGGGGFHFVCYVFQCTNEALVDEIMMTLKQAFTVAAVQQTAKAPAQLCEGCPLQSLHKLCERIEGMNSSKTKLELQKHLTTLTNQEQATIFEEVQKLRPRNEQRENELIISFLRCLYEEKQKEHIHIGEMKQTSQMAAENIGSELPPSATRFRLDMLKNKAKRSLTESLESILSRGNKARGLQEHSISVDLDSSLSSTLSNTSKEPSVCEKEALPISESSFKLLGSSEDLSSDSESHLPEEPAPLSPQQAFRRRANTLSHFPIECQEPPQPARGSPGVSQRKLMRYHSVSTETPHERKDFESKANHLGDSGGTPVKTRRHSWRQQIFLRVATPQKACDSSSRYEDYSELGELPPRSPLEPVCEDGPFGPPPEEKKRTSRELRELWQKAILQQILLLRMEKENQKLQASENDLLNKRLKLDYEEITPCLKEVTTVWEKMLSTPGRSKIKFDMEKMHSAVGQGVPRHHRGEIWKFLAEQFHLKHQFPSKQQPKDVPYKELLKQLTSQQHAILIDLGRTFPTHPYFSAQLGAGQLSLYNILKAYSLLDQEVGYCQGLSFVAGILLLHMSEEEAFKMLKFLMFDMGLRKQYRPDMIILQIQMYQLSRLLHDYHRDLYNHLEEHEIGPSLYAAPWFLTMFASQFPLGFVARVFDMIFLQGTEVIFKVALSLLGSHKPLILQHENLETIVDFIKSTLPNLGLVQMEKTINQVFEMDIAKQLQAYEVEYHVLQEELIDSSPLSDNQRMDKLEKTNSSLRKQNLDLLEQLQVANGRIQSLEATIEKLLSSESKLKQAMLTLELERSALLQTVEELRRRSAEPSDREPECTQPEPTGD
UniProt Q5T011: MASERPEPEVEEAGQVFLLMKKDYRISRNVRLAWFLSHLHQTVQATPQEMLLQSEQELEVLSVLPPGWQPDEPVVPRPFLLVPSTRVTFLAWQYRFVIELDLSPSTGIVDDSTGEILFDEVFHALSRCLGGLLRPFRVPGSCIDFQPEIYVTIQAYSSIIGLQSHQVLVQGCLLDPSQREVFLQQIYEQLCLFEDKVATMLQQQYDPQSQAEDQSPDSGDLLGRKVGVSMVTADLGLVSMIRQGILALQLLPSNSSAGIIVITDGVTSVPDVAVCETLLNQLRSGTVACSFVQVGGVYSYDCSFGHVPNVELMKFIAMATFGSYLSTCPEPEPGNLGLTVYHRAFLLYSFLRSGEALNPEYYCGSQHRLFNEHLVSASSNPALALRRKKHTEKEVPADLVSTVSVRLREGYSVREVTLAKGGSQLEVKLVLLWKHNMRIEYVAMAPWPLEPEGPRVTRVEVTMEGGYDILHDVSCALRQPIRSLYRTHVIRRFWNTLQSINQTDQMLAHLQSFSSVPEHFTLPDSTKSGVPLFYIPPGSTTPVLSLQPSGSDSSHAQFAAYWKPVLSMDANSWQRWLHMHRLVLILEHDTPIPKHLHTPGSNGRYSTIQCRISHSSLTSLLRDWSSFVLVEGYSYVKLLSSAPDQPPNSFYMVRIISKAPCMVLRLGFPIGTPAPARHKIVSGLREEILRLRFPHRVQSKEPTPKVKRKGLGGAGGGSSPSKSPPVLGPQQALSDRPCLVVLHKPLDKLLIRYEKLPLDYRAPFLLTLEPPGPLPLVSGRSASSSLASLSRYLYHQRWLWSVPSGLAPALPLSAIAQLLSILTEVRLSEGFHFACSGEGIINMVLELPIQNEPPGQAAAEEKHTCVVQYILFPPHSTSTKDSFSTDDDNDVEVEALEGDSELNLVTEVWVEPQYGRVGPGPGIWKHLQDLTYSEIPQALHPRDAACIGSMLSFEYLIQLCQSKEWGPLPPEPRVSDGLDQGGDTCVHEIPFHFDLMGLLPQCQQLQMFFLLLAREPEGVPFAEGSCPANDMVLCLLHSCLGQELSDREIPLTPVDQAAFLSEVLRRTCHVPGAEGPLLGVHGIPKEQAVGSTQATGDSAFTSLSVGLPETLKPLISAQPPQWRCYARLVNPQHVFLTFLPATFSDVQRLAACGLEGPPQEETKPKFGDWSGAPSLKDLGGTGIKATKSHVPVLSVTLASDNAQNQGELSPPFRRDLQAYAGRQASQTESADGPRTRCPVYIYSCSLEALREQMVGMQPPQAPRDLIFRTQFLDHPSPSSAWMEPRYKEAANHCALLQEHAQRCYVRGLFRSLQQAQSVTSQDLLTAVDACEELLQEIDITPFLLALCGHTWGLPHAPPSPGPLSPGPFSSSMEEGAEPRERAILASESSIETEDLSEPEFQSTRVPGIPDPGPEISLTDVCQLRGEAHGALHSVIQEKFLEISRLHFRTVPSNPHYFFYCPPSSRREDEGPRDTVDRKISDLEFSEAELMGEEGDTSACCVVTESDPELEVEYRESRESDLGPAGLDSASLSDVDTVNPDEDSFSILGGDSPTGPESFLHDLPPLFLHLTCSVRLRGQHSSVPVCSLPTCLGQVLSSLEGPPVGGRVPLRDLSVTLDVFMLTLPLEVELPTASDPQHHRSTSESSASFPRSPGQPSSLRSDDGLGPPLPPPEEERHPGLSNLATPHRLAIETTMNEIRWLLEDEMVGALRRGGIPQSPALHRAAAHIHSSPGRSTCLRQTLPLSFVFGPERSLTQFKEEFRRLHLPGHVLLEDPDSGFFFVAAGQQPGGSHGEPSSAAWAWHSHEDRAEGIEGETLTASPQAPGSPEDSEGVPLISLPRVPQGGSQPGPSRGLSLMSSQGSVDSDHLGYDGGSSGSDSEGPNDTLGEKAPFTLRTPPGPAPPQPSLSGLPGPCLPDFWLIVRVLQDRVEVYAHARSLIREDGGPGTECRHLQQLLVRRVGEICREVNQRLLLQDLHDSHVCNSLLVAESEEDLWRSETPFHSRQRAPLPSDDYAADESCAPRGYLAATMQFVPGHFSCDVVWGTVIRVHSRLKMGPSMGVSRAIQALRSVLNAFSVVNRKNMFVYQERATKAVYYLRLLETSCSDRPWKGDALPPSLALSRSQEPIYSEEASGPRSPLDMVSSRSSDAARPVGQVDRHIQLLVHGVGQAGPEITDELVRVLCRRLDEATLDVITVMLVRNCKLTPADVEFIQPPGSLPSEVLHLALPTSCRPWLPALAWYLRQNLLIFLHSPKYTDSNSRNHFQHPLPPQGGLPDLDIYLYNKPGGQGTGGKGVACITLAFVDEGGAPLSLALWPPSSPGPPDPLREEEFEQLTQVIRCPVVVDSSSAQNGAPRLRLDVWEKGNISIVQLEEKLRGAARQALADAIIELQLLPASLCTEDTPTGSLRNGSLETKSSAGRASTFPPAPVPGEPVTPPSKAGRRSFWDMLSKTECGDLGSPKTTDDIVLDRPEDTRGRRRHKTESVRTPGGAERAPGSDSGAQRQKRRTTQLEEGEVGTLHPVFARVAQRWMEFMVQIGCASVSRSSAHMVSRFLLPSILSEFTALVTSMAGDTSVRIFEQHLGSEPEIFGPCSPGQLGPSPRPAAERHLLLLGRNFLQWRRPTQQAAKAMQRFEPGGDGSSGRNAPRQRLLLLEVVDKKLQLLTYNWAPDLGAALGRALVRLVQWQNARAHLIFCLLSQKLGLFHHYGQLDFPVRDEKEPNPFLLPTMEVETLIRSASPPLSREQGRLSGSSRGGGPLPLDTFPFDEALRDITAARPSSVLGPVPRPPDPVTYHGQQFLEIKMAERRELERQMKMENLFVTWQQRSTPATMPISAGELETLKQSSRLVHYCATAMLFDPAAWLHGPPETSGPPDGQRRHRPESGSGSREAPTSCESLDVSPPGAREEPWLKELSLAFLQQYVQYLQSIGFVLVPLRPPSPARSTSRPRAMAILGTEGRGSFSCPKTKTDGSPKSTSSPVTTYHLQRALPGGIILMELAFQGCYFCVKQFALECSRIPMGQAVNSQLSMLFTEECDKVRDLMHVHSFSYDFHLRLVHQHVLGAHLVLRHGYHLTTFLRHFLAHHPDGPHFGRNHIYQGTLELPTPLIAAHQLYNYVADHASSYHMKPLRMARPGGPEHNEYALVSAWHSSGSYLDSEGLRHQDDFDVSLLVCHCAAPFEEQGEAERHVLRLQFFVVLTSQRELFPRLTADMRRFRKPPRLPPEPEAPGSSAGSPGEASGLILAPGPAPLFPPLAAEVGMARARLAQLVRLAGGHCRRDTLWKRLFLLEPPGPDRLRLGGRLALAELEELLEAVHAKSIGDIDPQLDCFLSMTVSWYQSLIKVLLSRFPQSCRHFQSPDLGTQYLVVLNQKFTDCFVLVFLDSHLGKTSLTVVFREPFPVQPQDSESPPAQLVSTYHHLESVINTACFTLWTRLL
UniProt Q15542, whole entry, looked up: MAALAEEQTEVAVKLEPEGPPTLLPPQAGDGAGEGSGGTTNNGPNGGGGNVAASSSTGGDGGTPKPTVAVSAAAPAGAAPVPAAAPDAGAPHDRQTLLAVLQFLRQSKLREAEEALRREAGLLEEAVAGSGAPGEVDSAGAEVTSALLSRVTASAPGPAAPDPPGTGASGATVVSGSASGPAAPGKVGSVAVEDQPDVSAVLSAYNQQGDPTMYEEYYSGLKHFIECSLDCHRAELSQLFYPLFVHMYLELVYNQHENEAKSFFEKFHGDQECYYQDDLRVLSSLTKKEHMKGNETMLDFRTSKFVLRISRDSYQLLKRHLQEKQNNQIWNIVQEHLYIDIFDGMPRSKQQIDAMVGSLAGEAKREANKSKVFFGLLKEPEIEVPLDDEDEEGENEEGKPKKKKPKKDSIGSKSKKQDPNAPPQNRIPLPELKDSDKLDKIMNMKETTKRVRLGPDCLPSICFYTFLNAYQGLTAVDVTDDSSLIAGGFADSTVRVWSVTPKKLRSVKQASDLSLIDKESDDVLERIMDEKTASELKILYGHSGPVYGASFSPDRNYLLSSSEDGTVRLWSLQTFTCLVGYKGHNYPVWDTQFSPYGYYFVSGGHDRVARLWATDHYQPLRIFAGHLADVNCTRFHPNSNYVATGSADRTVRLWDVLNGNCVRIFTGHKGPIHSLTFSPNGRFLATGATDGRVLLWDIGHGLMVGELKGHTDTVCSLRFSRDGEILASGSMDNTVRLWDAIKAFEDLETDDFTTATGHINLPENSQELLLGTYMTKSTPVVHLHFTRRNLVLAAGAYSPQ
UniProt P37802: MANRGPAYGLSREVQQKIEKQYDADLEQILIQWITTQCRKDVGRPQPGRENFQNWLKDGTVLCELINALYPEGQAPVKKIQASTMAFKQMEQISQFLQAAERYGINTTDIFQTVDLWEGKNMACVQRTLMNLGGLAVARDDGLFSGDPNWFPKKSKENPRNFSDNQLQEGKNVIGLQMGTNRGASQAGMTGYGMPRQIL

Compound: Cc1cc(ccc1-c1ccccc1)C(=O)N1CCCN(CC1)C(=O)CCl [compound 10]
Experiment: probe-labelled cysteine peptide fold change vs DMSO (competition) (log2 fold change); higher = less target engagement (more negative = stronger competition)
Settings: THP-1, incubation time: 4 h
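Also: competitive profiling in live THP-1 cells: cysteine peptides tagged with an iodoacetamide desthiobiotin (IA-DTB) probe, intensity after compound treatment relative to DMSO-treated cells.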

Target | probe-labelled cysteine peptide fold change (10 µM) | probe-labelled cysteine peptide fold change (50 µM)
TBC1D9B_Q66K14_162_LVNYYSCSYWK (UniProt Q66K14) | 0.216 | 0.206
TATDN1_Q6P1N9_150_LPMFLHCR (UniProt Q6P1N9) | -0.0457 | -0.267
TBC1D24_Q9ULP9_386_FYFQCEGHEPTLLLIK (UniProt Q9ULP9) | 0.179 | 0.159
TBC1D10A_Q9BXI6_324_ACQGQYETIER (UniProt Q9BXI6) | -0.209 | -0.104
SYVN1_Q86TM6_307_LPCNHIFHTSCLR (UniProt Q86TM6) | 0.193 | 0.273
TATDN1_Q6P1N9_113_VVAIGECGLDFDRLQFCPK (UniProt Q6P1N9) | -0.00511 | -0.419
TAX1BP1_Q86VP1_350_EDTCFLK (UniProt Q86VP1) | -0.379 | -0.87
TBL3_Q12788_298_VWEAASGQCVYTQAQPPGPGQELTHCTLAHTAGVVLTATADHNLLLYEAR (UniProt Q12788) | -0.0383 | -0.0693
TADA2B_Q86TJ2_359_VLCSSLNLSPAR (UniProt Q86TJ2) | 0.0971 | 0.0747
TBC1D1_Q86TI0_390_APAQLCEGCPLQSLHK (UniProt Q86TI0) | 0.147 | 0.00484
TBL3_Q12788_597_NNECVR (UniProt Q12788) | 0.383 | 0.285
TACC3_Q9Y6A5_749_CVEDYLAR (UniProt Q9Y6A5) | -0.0754 | 0.0488
TBC1D8B_Q0IIM8_305_EVHECFLWVPFSHFNTHGK (UniProt Q0IIM8) | 0.0597 | 0.0528
TBC1D14_Q9P2M4_81_HSLQSVDSGIPTLEIGNPEPVPCSAVHVR (UniProt Q9P2M4) | -0.189 | -0.286
SYTL1_Q8IYJ3_290_VHVIQCQGLAAAR (UniProt Q8IYJ3) | -0.00544 | 0.25
TACC3_Q9Y6A5_206_VTPASETLEDPCR (UniProt Q9Y6A5) | -0.0918 | 0.0974
TAF2_Q6P1X5_94_INDLEAAFIYNDPTLEVCHSESK (UniProt Q6P1X5) | -0.103 | 0.0497
SZT2_Q5T011_1152_LAACGLEGPPQEETKPK (UniProt Q5T011) | -0.32 | -0.367
TACC1_O75410_794_ICDELIAK (UniProt O75410) | 0.223 | 0.161
TAF5_Q15542_273_FHGDQECYYQDDLR (UniProt Q15542) | -0.184 | 0.0665
TBC1D1_Q86TI0_322_EISFCSQGIR (UniProt Q86TI0) | -0.0673 | 0.0796
TAPBPL_Q9BX59_283_DASLTLPGLTIQDEGTYICQITTSLYR (UniProt Q9BX59) | 0.289 | 0.503
TBCD_Q9BTW9_269_EDCLPYAATVLR (UniProt Q9BTW9) | -0.199 | -0.0376
TBL1XR1_Q9BZK7_367_WDPTGNLLASCSDDMTLK (UniProt Q9BZK7) | 0.0895 | 0.141
SYVN1_Q86TM6_326+329_QQTCPTCR (UniProt Q86TM6) | -0.0656 | -0.505
TCIRG1_Q13488_241_KITDCFHCHVFPFLQQEEAR (UniProt Q13488) | -0.0907 | -0.178
TAGLN2_P37802_63_DGTVLCELINALYPEGQAPVKK (UniProt P37802) | 0.178 | -0.187
TBC1D4_O60343_74_SQKPEAGGCGAPAAR (UniProt O60343) | -0.579 | -1.59
TARS_P26639_467_FQQDDAHIFCAMEQIEDEIK (UniProt P26639) | 0.194 | 0.497

Quoted from the listing:
Value for TBL3_Q12788_597_NNECVR (UniProt Q12788) under probe-labelled cysteine peptide fold change (10 µM): 0.383
Value for SZT2_Q5T011_1152_LAACGLEGPPQEETKPK (UniProt Q5T011) under probe-labelled cysteine peptide fold change (50 µM): -0.367
